# Measured values: PubChem BioAssay AID2549 (National Center for Advancing Translational Sciences (NCATS), 2010)
# Chains of the proteins cited; added tags and fusions are not shown. Lines headed by an entry give the natural chain unless they say otherwise; changes in a name come on top.
# UniProt P46063: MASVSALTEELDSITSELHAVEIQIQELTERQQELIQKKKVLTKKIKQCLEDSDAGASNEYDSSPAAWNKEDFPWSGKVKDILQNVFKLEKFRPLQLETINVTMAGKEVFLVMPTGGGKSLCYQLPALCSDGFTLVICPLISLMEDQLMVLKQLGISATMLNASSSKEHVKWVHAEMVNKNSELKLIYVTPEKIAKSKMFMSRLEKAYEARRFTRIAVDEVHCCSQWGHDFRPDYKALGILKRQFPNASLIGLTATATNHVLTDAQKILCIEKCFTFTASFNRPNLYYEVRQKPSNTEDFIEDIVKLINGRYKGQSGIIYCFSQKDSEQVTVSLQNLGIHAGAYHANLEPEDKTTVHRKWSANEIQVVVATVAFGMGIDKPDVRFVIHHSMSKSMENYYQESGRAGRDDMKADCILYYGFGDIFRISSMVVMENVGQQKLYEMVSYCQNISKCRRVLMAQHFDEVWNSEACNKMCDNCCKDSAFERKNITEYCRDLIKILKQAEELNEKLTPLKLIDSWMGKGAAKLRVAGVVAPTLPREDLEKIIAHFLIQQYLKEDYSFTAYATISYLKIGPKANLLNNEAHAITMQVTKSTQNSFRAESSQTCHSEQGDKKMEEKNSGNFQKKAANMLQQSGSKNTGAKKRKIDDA
# Values joined by “and” are separate entries in the source; they are usually repeats but may differ in a detail not shown here. Equal values may be shown once. About 1,300 (0.54%) of roughly 240,000 compounds were called active. Inconclusive results, whose numbers are uncertain, are shown with a selection of clear calls. Calls follow the shape of the dose curve; as a rule, active = well fitted inhibition curve with a large enough effect; inconclusive = small, poorly fitted or top-dose-only effect; inactive = flat fitted curve, though single readings scatter. Potencies of inconclusive entries are doubtful fits and often do not repeat.
# Molecular target: ATP-dependent DNA helicase Q1 (Homo sapiens) (UniProt P46063)
# Test: qHTS Assay for Inhibitors of RecQ-Like Dna Helicase 1 (RECQ1); also: nearly all actives have a fitted effect of over 30% in size;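 as to activity, negative = inhibition: plate controls were vehicle for no effect and no enzyme for full effect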
# Settings: RECQ1 DNA unwinding, red fluorescence kinetic read; activity, negative = inhibition: at 57.3 µM (top of the series); series mostly up to 57.3 µM
# Excerpt: Survival of cells and the faithful propagation of the genome depend on elaborate mechanisms of detecting and repairing DNA damage. Treatment of advanced cancer relies on radiation therapy or chemotherapy, which kill cancer cells by causing extensive DNA damage. It is often found, that cancer cells develop resistance to therapy through enhanced activity of DNA repair functions; this has led to an increased interest in developing drugs that interfere with DNA repair, which could sensitize cancer cells to conventional therapy.
# This validation qHTS assay pertains to human RECQ1, which is important in resolving abnormal DNA structures formed during replication or homologous recombination. Shutting down the expression of RECQ1 leads to chromosomal instability and higher radiation sensitivity in cultured cells.
# The validation assay was a fluorescence quenching based kinetic qHTS for RECQ1 Helicase DNA unwinding. The activity was measured as ATP-dependent separation of a 20-bp DNA duplex extended by 30-nt single-stranded tails (forked duplex). The forked DNA substrate was tagged with rhodamine fluorophore (carboxytetramethyl rhodamine, TAMRA) and BHQ-2 (Black Hole Quencher 2) dark quencher. Strand separation results in an increase in the fluorescence of TAMRA (excitation 525 nm, emission 598 nm). This substrate construct operates in a red-shifted region where very few compound library members have been noted to fluoresce (PubChem AIDs 593 and 594). An additional feature of the assay is the inclusion of 2.5 ug/ml poly (dIdC), to reduce interference by compounds such as DNA intercalators, a major source of false inhibitors.
# Opher Gileadi, Structural Genomics Consortium, University of Oxford
# Screening Center PI: Austin, C.P.
# Screening Center: NIH Chemical Genomics Center [NCGC]
# Three uL of reaction buffer (25 mM Tris-HCl (pH 8.0), 5 mM NaCl, 2 mM MgCl2, 1mM DTT, 0.01% Tween- 20, and 2.5 ug/ml poly(dI-dC), including enzyme (50 nM RECQ1T1), were dispensed into a 1536-well Greiner black assay plate via solenoid-valve based nanoliter dispensers. Compounds (23 nl each in columns 5-48) and control (23 nl each in column 2 as dose-response) were transferred via a Kalypsys pintool equipped with a 1536-pin array. The plates were incubated for 15 min at room temperature, and then 1 ul of substrates (200 nM DNA and 2 mM ATP, final concentrations) was added to start the reaction. The plate was transferred into a ViewLux high-throughput CCD imager where the reaction progress was measured in a discontinuous kinetic mode (two reads spaced 2 hours apart, with intermediate room temperature incubation of the covered assay plate) by using standard red-fluorescence optics (excitation filter 525 nm, emission filter 598 nm). Enzyme-free and vehicle (DMSO) controls were included for signal normalization.
# Potency is read from the fitted curve at half-maximal effect.
SMILES,Potency,outcome,"activity, negative = inhibition"
Cc1cc(/C=C2\SC(=O)N(CC(=O)Nc3ccccc3F)C2=O)c(C)n1C,"inconclusive: 3.16 µM [inhibitor, partial curve, poor fit]",–,–
CCOC(=O)NC1(NC2CCCCC2)Oc2ccccc2O1,"inconclusive: 12.6 µM [inhibitor, partial curve]",–,–
O=[N+]([O-])c1cc(CN2CCN(c3ccccc3)CC2)c(O)c2ncccc12,–,inactive,–
O=C(Nc1nc(-c2ccccc2)cs1)Nc1ccc(F)cc1F,"inconclusive: 35.5 µM [inhibitor, single point]",–,–
COc1ccc(-c2cc(=O)c3cc(O)ccc3o2)cc1,"inconclusive: 22.4 µM [inhibitor, partial curve, poor fit]",–,–
Cc1sc(-c2ccccn2)nc1OC(=O)c1ccc(F)cc1F,"inconclusive: 3.16 µM [inhibitor, partial curve]",–,–
CC(C)CC(C(=O)Nc1oc(-c2ccco2)c(-c2ccco2)c1C#N)N1C(=O)c2ccccc2C1=O (stereo not given),"inconclusive: 28.2 µM [inhibitor, single point]",–,–
CC(C)C(=O)NC(=S)Nc1nnn(C)n1,"inconclusive: 39.8 µM [inhibitor, single point]",–,–
CCOc1ccc(C(=O)c2cc3ccc(O)cc3oc2=O)cc1,–,–,inactive: -2.53%
CC(=O)Nc1ccc(S(=O)(=O)/N=C2/NC(=O)/C(=C\c3ccco3)S2)cc1,"inconclusive: 35.5 µM [inhibitor, single point]",–,–
Cc1c(NC(=S)N/N=C\c2ccccc2O)c(=O)n(-c2ccccc2)n1C,–,–,inactive: -1.59%
Cc1c(C)c2c(c(C)c1O)CCC(C)(COc1ccc(CC3SC(=O)NC3=O)cc1)O2 (stereo not given),"inconclusive: 35.5 µM [inhibitor, single point] and inconclusive: 39.8 µM [inhibitor, single point]",–,–
COc1ccccc1N1CCN(CCn2c(=O)c3c(c4ccccc4n3C)n(C)c2=O)CC1,inactive,–,–
COc1ccc2c(c1)OC1(O)COc3cc(OC)c(OC)cc3C1=C2 (stereo not given),–,inactive,–
COC(=O)c1ccccc1NC(=O)CCS(=O)(=O)c1ccc(Br)cc1,active: 31.6 µM,–,–
CC1=NN(c2ccccc2)C(=O)/C1=C/C=C/C=C/N(C)C,"inconclusive: 22.4 µM [inhibitor, single point]",–,–
O=C(C1=C[C@H](c2coc3ccccc3c2=O)C[C@H](OCCCCO)O1)N1CCOCC1,"inconclusive: 25.1 µM [inhibitor, single point]",–,–
Cc1nnsc1C(=O)N/N=C/c1ccc2ccccc2c1O,–,–,inactive: -1.9%
O=C(CSc1nc2ccccc2s1)CSc1nc2ccccc2s1,"inconclusive: 22.4 µM [inhibitor, partial curve]",–,–
C=Cc1c(C)c2cc3[nH]c(cc4nc(cc5nc(cc1[nH]2)C(C)=C5CCC(=O)O)C(CCC(=O)O)=C4C)c(C)c3C=C,active: 7.08 µM and active: 10 µM,–,–
CC(C)CNC(=O)CC(=O)NN=C1CCCC1,"inconclusive: 7.94 µM [inhibitor, single point]",–,–
COC(=O)N[C@@H](CCc1ccccc1)[C@]1(C(C)=O)CCCC1=O,–,inactive,–
COc1cc(O)c2c(c1)oc(=O)c1c3cc(O)c(O)cc3oc21,active: 11.2 µM and active: 2.51 µM,–,–

# Whole records from above. Order of values: Potency | outcome | activity, negative = inhibition
# O=[N+]([O-])c1cc(CN2CCN(c3ccccc3)CC2)c(O)c2ncccc12 is listed with – | inactive | –
# O=C(CSc1nc2ccccc2s1)CSc1nc2ccccc2s1 is listed with inconclusive: 22.4 µM [inhibitor, partial curve] | – | –

# Continued:

SMILES,Potency,outcome,"activity, negative = inhibition"
CCC(=O)Oc1ccc(/C(CC)=C(\CC)c2ccc(OC(=O)CC)cc2)cc1,"inconclusive: 0.0447 µM [inhibitor, full curve]",–,–
COc1cc(Br)c(S(=O)(=O)Nc2c(C)n(C)n(-c3ccccc3)c2=O)cc1OC,"inconclusive: 0.141 µM [inhibitor, full curve]",–,–
O=C1OC2(c3ccccc31)c1cc(I)c(O)c(I)c1Oc1c2cc(I)c(O)c1I,active: 28.2 µM,–,–
CN(C)c1ccc(N2C(=O)CSC2=S)cc1,"inconclusive: 31.6 µM [inhibitor, single point]",–,–
Nc1cccc(C(=O)O)c1,"inconclusive: 0.141 µM [inhibitor, partial curve, poor fit]",–,–
Cc1cc(/C=C2\SC(=S)NC2=O)c(C)[nH]1,"inconclusive: 6.31 µM [inhibitor, single point]",–,–
COc1ccc(/C=N/NC(=O)c2ccccc2OCc2ccccc2)c(OC)c1,"inconclusive: 10 µM [inhibitor, partial curve, poor fit]",–,–
COn1cnnc1-c1ccccc1,–,–,inactive: -2.38%
O=C(OCC(=O)N1CCN(C(=O)c2ccco2)CC1)c1cc(-c2ccco2)nc2ccccc12,active: 12.6 µM,–,–
CCOC(=O)C1=C(C)N(C)C(=S)N(C)C1c1ccc(OC)cc1 (stereo not given),–,–,inactive: -0.792%
CCOC(=O)c1c(NC(=O)C(C)Sc2c[nH]c3ccccc23)sc2c1CCC2 (stereo not given),"inconclusive: 39.8 µM [inhibitor, single point]",–,–
O=C(O)c1ccccc1-c1c2ccc(=O)cc-2oc2cc(O)ccc12,active: 17.8 µM and active: 31.6 µM,–,–
COc1c(O)cc2c(=O)oc3c(OC)c(O)cc4c(=O)oc1c2c34,active: 3.16 µM,–,–
Cc1ccc(N(CC(=O)NCc2cccnc2)S(C)(=O)=O)cc1C,"inconclusive: 35.5 µM [inhibitor, partial curve]",–,–
COC(=O)C1=C(C(=O)OC)[C@@H]2N(C)c3ccccc3[C@@]23C[C@@H](C(=O)OC)N(C(=O)COCc2ccccc2)C3=N1,"inconclusive: 2.82 µM [inhibitor, partial curve]",–,–
N#Cc1nc(-c2ccco2)oc1N1CCN(c2cccc(Cl)c2)CC1,"inconclusive: 0.794 µM [inhibitor, full curve]",–,–
CN(C)/C=C1\C(=O)N(C)N=C1C(F)(F)F,"inconclusive: 1 µM [inhibitor, full curve]",–,–
O=C(N/N=C/c1cc2ccccc2nc1Cl)c1ccncc1,–,–,inactive: -0.927%
Cc1ccc(N2CC(=O)N(CC(=O)O)C2=O)cc1,–,–,inactive: -4.26%
COc1ccc(CNC(=O)c2nnn(-c3cccc(C(F)(F)F)c3)c2N)cc1,"inconclusive: 35.5 µM [inhibitor, single point]",–,–
Brc1cccc(/C=N/Nc2nn[nH]n2)c1,–,inactive,–
O=C1/C(=C/c2ccc(N3CCCC3)cc2)NC(=S)N1C1CC1,–,–,inconclusive: -41.8% [inhibitor]
